{"source": "PubChem BioAssay AID1671195 (Yale University, 2021)", "test": "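Knockdowns that increase or decrease uptake of fluorescent LDL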 (primary screen)", "cell system": "human Huh7 hepatoma cells", "knock-down reagent": "siRNA pool against human genes, 18 nM", "time to read-out": "about 2 to 2.5 days of knockdown, then 8 h LDL uptake", "challenge": "DiI-labelled LDL at 30 µg/ml for 8 h, in lipoprotein-deficient serum medium", "read-out": "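Fluorescent LDL signal imaged in cells, scaled to the plate median, robust z-score for each replicate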", "direction": "robust z-score: higher = more LDL uptake after knockdown", "call rule": "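Active when two or more replicates show a robust z-score above 2 or below -2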", "note": "Shown is an unselected part of about 22,000 reagents tested. Over the whole deposit, about 1,510 (6.9%) got an active call. 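Active includes knockdowns raising or lowering LDL uptake; positive z-scores mean more uptake, negative mean less.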 Unmarked entries are inactive."}
{"target": "FLJ44674 (retired record)", "robust z-score, replicate 1": -1.32, "robust z-score, replicate 2": -1.28, "robust z-score, replicate 3": -1.01}
{"target": "CYBC1 (cytochrome b-245 chaperone 1)", "robust z-score, replicate 1": 0.402, "robust z-score, replicate 2": -0.692, "robust z-score, replicate 3": 0.441}
{"target": "KDELR2 (KDEL endoplasmic reticulum protein retention receptor 2)", "robust z-score, replicate 1": -0.33, "robust z-score, replicate 2": 0.367, "robust z-score, replicate 3": 0.174}
{"target": "TUSC3 (tumor suppressor candidate 3)", "robust z-score, replicate 1": 0.295, "robust z-score, replicate 2": 0.845, "robust z-score, replicate 3": 0.852}
{"target": "LINC01118 (long independently transcribed non-coding RNA 1118)", "robust z-score, replicate 1": -0.538, "robust z-score, replicate 2": -0.584, "robust z-score, replicate 3": -0.455}
{"target": "EIF6 (eukaryotic translation initiation factor 6)", "robust z-score, replicate 1": 0.0645, "robust z-score, replicate 2": 0.57, "robust z-score, replicate 3": 1.93}
{"target": "PAX9 (paired box 9)", "robust z-score, replicate 1": -1.49, "robust z-score, replicate 2": -1.5, "robust z-score, replicate 3": -1.37}

Copied from the list.
KDELR2 (KDEL endoplasmic reticulum protein retention receptor 2), robust z-score, replicate 1: -0.33
Under “robust z-score, replicate 2”, EIF6 (eukaryotic translation initiation factor 6) is entered as 0.57

Continued:
{"target": "KRT10 (keratin 10)", "robust z-score, replicate 1": -0.292, "robust z-score, replicate 2": -0.634, "robust z-score, replicate 3": -1.1}
{"target": "TTLL13 (tubulin tyrosine ligase like 13)", "robust z-score, replicate 1": 0.591, "robust z-score, replicate 2": 0.0889, "robust z-score, replicate 3": 0.331}
{"target": "PROM2 (prominin 2)", "robust z-score, replicate 1": -0.887, "robust z-score, replicate 2": -0.914, "robust z-score, replicate 3": -0.919}
{"target": "LOC441028 (retired record)", "robust z-score, replicate 1": 0.198, "robust z-score, replicate 2": 1.79, "robust z-score, replicate 3": 1.3}
{"target": "RFPL4B (ret finger protein like 4B)", "robust z-score, replicate 1": 0.98, "robust z-score, replicate 2": 0.6, "robust z-score, replicate 3": 0.76}
